From article PMC13530250
No constants are given. Whether binding was seen depends on the method and setting. In cells and extracts the contact can be indirect. Some results given as binding are weak or reduced against the parent protein; the word gives no strength. Tags and fused reporters may be left off the sequences shown.

Protein sequences, listed by entry. Tags and fused reporters are not part of them. Residues count along the entry.
UniProt Q02817, residues 21-5289: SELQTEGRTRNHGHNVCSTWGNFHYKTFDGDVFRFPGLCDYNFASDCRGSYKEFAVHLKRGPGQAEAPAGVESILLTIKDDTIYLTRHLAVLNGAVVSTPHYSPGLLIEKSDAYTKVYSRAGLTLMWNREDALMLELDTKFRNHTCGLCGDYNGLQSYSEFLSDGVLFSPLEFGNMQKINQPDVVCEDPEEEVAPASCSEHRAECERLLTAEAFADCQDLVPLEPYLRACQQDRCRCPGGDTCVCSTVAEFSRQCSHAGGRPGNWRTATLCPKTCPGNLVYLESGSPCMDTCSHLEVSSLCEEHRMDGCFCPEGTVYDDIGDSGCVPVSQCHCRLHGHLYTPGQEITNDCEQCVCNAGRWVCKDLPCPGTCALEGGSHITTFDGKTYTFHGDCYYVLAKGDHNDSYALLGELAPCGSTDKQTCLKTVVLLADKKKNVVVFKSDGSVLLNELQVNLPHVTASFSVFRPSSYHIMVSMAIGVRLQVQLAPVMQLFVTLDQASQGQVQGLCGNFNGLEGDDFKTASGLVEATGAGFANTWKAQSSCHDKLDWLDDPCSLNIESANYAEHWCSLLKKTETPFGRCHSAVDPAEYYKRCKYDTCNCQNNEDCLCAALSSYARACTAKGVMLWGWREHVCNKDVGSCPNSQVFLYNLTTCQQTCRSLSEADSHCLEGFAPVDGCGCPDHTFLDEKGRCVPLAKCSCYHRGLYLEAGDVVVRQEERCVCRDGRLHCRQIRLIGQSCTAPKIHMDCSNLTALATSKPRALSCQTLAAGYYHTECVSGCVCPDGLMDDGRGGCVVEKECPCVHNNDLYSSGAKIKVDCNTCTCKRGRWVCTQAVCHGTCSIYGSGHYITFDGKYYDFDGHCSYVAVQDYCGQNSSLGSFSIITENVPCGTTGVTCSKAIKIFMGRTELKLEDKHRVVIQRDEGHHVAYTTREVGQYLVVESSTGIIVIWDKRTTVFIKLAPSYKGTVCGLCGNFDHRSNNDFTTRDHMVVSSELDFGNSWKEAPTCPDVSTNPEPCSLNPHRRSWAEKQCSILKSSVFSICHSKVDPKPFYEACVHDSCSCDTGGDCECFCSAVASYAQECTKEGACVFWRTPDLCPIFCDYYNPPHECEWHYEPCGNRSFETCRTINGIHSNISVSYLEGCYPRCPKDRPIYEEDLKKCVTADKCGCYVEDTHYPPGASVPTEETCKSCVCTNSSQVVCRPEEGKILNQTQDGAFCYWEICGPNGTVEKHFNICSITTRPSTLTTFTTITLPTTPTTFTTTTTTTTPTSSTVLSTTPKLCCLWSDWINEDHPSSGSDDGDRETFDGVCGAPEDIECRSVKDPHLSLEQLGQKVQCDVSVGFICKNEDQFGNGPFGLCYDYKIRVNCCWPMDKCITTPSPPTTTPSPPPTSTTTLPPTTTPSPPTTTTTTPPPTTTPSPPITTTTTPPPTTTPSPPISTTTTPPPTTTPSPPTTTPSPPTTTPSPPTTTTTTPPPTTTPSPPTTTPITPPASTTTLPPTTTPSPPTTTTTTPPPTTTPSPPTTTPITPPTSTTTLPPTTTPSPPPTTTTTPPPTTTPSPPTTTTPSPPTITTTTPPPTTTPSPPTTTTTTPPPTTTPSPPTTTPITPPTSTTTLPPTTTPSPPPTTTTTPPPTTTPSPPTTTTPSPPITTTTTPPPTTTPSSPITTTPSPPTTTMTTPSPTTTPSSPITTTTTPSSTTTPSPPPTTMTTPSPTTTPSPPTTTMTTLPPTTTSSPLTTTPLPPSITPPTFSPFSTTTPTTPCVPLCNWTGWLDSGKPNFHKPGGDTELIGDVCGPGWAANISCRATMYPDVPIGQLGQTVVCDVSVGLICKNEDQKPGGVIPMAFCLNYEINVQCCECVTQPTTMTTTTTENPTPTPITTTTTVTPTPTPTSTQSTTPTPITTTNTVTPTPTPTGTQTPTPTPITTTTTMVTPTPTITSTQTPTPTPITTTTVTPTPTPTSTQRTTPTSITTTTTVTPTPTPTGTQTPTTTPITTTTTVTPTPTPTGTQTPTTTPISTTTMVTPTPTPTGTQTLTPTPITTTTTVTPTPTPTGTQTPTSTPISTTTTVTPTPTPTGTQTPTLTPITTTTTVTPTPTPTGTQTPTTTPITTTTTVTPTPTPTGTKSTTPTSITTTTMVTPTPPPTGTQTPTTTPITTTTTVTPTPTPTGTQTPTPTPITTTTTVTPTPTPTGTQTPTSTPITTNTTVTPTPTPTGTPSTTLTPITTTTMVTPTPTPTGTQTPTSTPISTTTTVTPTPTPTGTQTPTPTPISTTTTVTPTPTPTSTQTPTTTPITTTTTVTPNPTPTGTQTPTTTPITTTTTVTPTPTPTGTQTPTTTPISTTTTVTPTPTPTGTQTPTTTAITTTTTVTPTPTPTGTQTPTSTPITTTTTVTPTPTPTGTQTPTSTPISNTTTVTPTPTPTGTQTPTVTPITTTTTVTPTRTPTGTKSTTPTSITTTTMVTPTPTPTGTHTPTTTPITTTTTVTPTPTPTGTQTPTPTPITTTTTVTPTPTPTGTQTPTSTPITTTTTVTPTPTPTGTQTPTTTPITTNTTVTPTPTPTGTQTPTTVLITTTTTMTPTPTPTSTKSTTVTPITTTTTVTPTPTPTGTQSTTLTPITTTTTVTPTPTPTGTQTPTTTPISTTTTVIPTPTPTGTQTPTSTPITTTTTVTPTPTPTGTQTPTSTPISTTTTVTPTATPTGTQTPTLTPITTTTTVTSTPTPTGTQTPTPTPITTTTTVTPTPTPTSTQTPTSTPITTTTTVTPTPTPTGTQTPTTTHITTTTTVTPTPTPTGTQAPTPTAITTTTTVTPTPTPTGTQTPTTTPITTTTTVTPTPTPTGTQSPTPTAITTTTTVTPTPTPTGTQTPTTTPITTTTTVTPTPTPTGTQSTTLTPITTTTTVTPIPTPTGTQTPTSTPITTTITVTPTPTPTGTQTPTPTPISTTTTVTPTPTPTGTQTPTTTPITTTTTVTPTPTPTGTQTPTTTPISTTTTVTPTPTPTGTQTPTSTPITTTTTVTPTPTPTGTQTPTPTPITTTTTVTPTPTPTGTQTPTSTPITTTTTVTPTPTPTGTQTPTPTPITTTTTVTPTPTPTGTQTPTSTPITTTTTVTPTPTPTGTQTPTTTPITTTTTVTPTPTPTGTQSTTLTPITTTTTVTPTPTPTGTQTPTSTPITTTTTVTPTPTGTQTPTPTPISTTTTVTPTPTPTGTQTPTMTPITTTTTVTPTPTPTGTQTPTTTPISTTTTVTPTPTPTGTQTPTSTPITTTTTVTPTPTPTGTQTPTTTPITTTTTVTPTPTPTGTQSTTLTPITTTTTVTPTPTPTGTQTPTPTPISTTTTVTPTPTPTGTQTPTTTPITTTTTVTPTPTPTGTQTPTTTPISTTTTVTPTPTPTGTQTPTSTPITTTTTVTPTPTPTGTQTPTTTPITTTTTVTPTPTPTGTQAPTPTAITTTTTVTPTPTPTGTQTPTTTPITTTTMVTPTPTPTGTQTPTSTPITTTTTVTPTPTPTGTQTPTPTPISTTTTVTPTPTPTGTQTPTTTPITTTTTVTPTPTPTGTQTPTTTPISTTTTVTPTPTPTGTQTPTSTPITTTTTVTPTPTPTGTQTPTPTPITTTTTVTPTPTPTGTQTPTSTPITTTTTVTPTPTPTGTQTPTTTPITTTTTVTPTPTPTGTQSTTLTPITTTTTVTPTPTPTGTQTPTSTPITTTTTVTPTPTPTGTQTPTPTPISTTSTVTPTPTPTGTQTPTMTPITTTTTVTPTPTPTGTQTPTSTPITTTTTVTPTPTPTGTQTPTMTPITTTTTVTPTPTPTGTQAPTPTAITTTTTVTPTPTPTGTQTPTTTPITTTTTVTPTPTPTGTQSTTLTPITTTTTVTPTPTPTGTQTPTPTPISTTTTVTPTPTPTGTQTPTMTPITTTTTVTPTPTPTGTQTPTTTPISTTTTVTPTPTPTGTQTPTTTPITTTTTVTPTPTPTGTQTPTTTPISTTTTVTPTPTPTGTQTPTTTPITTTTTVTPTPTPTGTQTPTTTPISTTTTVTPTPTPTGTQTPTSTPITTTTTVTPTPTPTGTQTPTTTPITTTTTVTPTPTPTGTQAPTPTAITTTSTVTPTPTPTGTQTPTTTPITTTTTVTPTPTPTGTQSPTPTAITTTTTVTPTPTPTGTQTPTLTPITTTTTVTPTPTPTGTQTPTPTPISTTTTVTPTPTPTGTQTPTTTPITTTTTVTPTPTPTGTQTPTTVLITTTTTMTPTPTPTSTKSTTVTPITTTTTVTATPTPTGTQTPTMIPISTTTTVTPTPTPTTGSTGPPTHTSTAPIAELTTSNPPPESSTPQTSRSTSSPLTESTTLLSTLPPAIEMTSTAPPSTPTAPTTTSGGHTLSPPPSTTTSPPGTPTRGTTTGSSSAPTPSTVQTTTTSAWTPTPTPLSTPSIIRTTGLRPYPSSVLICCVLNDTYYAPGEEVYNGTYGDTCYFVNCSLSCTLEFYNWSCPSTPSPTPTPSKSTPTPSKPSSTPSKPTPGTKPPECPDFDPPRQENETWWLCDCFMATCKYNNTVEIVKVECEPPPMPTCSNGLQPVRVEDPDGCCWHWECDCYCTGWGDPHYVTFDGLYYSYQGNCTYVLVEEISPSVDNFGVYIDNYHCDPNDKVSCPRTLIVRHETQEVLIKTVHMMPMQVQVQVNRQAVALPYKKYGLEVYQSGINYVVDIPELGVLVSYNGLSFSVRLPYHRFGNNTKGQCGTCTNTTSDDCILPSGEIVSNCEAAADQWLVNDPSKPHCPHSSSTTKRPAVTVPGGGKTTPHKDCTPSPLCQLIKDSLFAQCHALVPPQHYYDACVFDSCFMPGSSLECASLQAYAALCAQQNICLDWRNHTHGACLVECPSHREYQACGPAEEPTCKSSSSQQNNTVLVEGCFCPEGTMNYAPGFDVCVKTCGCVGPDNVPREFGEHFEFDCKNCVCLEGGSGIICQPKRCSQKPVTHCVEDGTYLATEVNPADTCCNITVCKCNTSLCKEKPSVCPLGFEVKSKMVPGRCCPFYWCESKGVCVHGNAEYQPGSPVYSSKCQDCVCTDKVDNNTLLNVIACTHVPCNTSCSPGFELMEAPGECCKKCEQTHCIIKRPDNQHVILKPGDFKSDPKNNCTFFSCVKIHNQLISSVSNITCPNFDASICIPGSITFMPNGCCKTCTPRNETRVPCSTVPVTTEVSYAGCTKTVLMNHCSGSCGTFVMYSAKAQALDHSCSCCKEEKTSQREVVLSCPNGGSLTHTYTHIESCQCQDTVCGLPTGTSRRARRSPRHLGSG

Target: T1, B3GNT6-Flag (UniProt Q6ZMB0)
T1 sequence: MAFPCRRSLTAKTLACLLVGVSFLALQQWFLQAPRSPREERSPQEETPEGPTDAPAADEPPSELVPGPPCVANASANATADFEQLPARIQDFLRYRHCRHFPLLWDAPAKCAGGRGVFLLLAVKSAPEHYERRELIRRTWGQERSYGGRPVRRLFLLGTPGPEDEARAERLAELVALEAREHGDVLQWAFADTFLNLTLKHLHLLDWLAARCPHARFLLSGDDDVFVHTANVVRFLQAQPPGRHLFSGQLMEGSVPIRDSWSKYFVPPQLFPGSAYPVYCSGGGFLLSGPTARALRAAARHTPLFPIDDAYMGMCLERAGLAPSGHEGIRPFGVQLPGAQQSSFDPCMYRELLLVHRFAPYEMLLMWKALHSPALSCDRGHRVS
Test: co-IP; LOVO cells transfected with pcDNA3.1-B3GNT6-Flag; lysates incubated with anti-Flag magnetic beads or specific antibodies on Protein A/G magnetic beads; IgG control; Western blot

binding: binds
Substance: MUC2 (from UniProt Q02817 21-5289)
